The other results are listed elsewhere or left out. The main result of the screen is listed elsewhere. These columns were measured beside it and carry no call. Most of these compounds were active or inconclusive in the main read-out, so they are no random draw. The note in brackets gives the kind of curve behind each potency; many fits are weak.
Assay: qHTS Assay for Lipid Storage Modulators in Drosophila S3 Cells;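 on cell number change: cells counted by Cell Tracker Red CMTPX staining in the red channel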
Settings: BODIPY lipid droplet fluorescence, 18-24 h; for cell number change: measured here: cell count max response, cells fed with added oleic acid
Summary of the method: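 Drosophila S3 cells loaded with oleic acid (400 uM, as added) and compounds at several concentrations; lipid droplets imaged by 488-nm laser-scanning cytometry, 500–530 nm intensity and object ratio to cell channel. Percent activity normalized to 20 uM Triacsin C.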

[1] = measured here: cell number channel AC50, cells fed with added oleic acid
[2] = measured here: lipid fluorescence (Fed channel) AC50, cells fed with added oleic acid

Compound	cell number change [%]	AC50 [1]	AC50 [2]
N#Cc1nc(-c2ccc(OCc3ccccc3)cc2)oc1N1CCC(C(N)=O)CC1	5.04	1.64 µM [falling, partial curve]	
CNC(=O)C(=O)NCCCN1CCOCC1	27.7		6.51 µM [rising, single point]
Cc1nc([N+](=O)[O-])c(N2CCN(C)CC2)n1Cc1ccccc1	2.26		
CC(=O)c1cn(C)c(=O)n(C)c1=O	-35.8	0.731 µM [rising, partial curve, poor fit]	
COCCN(C(=O)c1csnn1)C(C(=O)NC1CCCC1)c1ccccc1 (stereo not given)	19.2	3.66 µM [rising, single point]	
O=C(Nc1cccc(Cl)c1)O/N=C\c1ccncc1	-11.8		
Cc1cc(C)n2nc(C(=O)OCC(=O)N3CC(C)CC(C)C3)nc2n1 (stereo not given)	-3.3		25.9 µM [rising, partial curve, poor fit]
CCOc1ccc(N2C(=O)CC(N3CCOCC3)C2=O)cc1 (stereo not given)	8.19		0.082 µM [rising, full curve, poor fit]
Cc1c(C(=O)O)sc(=S)n1-c1ccccc1	-1.1		29.1 µM [falling, single point]
Fc1ccc(CNc2nc(-c3cccnc3)nc3ccccc23)cc1	-3.97		29.1 µM [falling, single point]
O=C(NCCc1ccccc1)C1CCCN(C(=O)NC2CCCCC2)C1 (stereo not given)	4.89		0.13 µM [rising, full curve, poor fit]
O=C(Nc1nc2ccc(F)cc2s1)Oc1ccccc1	8.4		29.1 µM [rising, single point]
COc1ccc(CCNC(=O)c2ccc(NC(=O)CC3SC(N4CCCC4)=NC3=O)cc2)cc1 (stereo not given)	-11.3		
COc1ccc(Br)cc1CNC(=O)CCN1C(=O)COc2ccccc21	4.65		6.51 µM [rising, single point]
Cc1nnc(NC(=O)c2ccc3c(c2)OCO3)s1	25.4		8.2 µM [rising, partial curve, poor fit]
CCOc1ccc(OCCSc2nc3ccccc3n2CC(=O)O)cc1	4.2		29.1 µM [rising, single point]
CCOC(=O)C1=C(C)N=C2SCCC(=O)N2C1c1ccc(C(=O)OC)cc1 (stereo not given)	-14.1		
O=C(NC(NC(=S)Nc1c(Cl)cc(Cl)cc1Cl)C(Cl)(Cl)Cl)OCc1ccccc1 (stereo not given)	-20.1		29.1 µM [falling, single point]
N#Cc1nc(-c2cccc3ccccc23)oc1NCCN1CCOCC1	-13.1		
CCOc1cc(C(=S)N2CCCC2)ccc1OCc1ccccc1	-39.9	29.1 µM [falling, single point]	

Entries of single compounds, quoted from the list.
CC(=O)c1cn(C)c(=O)n(C)c1=O is entered as cell number change [%]: -35.8; AC50 [1]: 0.731 µM [rising, partial curve, poor fit]
CCOc1ccc(N2C(=O)CC(N3CCOCC3)C2=O)cc1 (stereo not given) is entered as cell number change [%]: 8.19; AC50 [2]: 0.082 µM [rising, full curve, poor fit]
CCOC(=O)C1=C(C)N=C2SCCC(=O)N2C1c1ccc(C(=O)OC)cc1 (stereo not given) is entered as cell number change [%]: -14.1
Cc1c(C(=O)O)sc(=S)n1-c1ccccc1 is entered as cell number change [%]: -1.1; AC50 [2]: 29.1 µM [falling, single point]

More results follow:

Compound	cell number change [%]	AC50 [1]	AC50 [2]
O=c1[nH]c2cc(NCCO)c([N+](=O)[O-])cc2[nH]1	49.5	16.4 µM [rising, single point]	6.51 µM [falling, single point]
Oc1ccccc1C1=Nc2nc3ccccc3n2C(c2ccccc2)C1 (stereo not given)	-93	18.4 µM [falling, single point]	29.1 µM [rising, single point]
CCOc1ccccc1N1CCN(C(=O)c2cccs2)CC1	15.2		6.51 µM [rising, single point]
CCc1c(C)nc2ncnn2c1Nc1ccc(C)cc1	-9.62		29.1 µM [falling, single point]
Cn1c(SCc2c(Cl)cccc2Cl)nnc1-c1cccs1	-0.0261		
Cc1ccc(-c2nc(SCC(=O)N(C)C3CCS(=O)(=O)C3)[nH]c2-c2ccc(C)cc2)cc1 (stereo not given)	-85.4	2.31 µM [falling, full curve]	5.8 µM [falling, partial curve]
COc1cccc(NC(=O)NCc2ccccc2F)c1	-6.33		0.092 µM [falling, full curve, poor fit]
Cc1cccc(C)c1OCCNC(=O)OCc1ccccc1	-121	25.9 µM [falling, single point]	6.51 µM [rising, single point]
COc1ccc2c(c1)c(C(=O)O)c(C)n2-c1ccc(Cl)cc1	3.31		7.31 µM [rising, partial curve]
Cc1cc(C)cc(NC(=O)CSc2nnc(-c3ccccc3)n2N)c1	23.8	3.26 µM [rising, partial curve, poor fit]	
Cc1occc1-c1nnc(SCC(=O)N2CCCc3ccccc32)n1Cc1ccco1	10.9		1.84 µM [rising, partial curve]
COc1cc(OC)c(N(C)C(=O)CCNC(=O)Cn2cnc3ccccc3c2=O)cc1Cl	84.7	14.6 µM [rising, partial curve]	
O=C(N1CCCCCC1)n1c(Cc2ccccc2)nc2ccccc21	-26.7		29.1 µM [falling, single point]
O=C(Nc1ccc2c(c1)OCO2)c1cc2ncc(Br)cn2n1	9.87		5.8 µM [rising, partial curve]
CCOC(=O)C1=C(COC(=O)Cc2ccc(OC)c(OC)c2)NC(=O)NC1C (stereo not given)	14.3		
CN(C)CCNC(=O)Cn1c(=O)c2cccn2c2ccc(F)cc21	12.1		6.51 µM [rising, single point]
Cn1c(SCC(=O)N2CCCc3ccccc32)nnc1-c1ccccc1	-16.5		5.17 µM [rising, single point]
O=C(NC(=S)Nc1ccc2[nH]ncc2c1)c1ccccc1	32.7	0.411 µM [rising, full curve]	3.66 µM [rising, full curve]
COc1ccc(/C=C/C(=O)Oc2ccc(/C=N/NC(=O)c3ccncc3)cc2)cc1	14.3		0.58 µM [rising, single point]
CCCCC(=O)NC(c1ccccc1Cl)c1c(O)ccc2ccccc12 (stereo not given)	-2.86		0.082 µM [falling, single point]

Compound	cell number change [%]	AC50 [1]	AC50 [2]
COCCCNc1oc(-c2cccs2)nc1S(=O)(=O)c1ccc(C)cc1	-0.615	0.00461 µM [falling, full curve, poor fit]	0.82 µM [falling, full curve, poor fit]
CCOP(=O)(NC(c1ccccc1)c1nc2ccccc2[nH]c1=O)OCC (stereo not given)	-22.5		
CSc1ccc(C(=O)C2CCCN(C(=O)CN3CCOC3=O)C2)cc1 (stereo not given)	24.6		0.164 µM [rising, full curve, poor fit]
C=CCOc1c(Br)cc(/C=C(\C#N)C(N)=O)cc1OC	0.264	6.51 µM [falling, single point]	
CCOC(=O)N1CCN(C(=O)C2CCN(S(=O)(=O)c3ccc(Cl)cc3)CC2)CC1	6.03		0.517 µM [falling, single point]
Cn1c(=O)[nH]c(=O)c2c1nc(N1CCN(CCO)CC1)n2Cc1ccccc1Cl	20.4		7.31 µM [rising, single point]
COc1cc(C(=O)Nc2nc3ccc(S(C)(=O)=O)cc3s2)cc(OC)c1C	-12.7	3.66 µM [falling, single point]	3.66 µM [falling, single point]
CCOC(=O)/C(C#N)=C\c1ccc(O)c(OC)c1	-51.7	16.4 µM [falling, partial curve]	
CCCNC(=O)COc1coc(CN2CCN(c3cccc(Cl)c3)CC2)cc1=O	40.8	4.11 µM [rising, partial curve]	23.1 µM [rising, partial curve]
Cc1ccc(C(C(=O)NC2CCCCC2)N(CC2CCCO2)C(=O)CNC(=O)c2cccs2)cc1 (stereo not given)	-31	3.26 µM [falling, partial curve]	2.59 µM [falling, partial curve]
CCCCCc1ccc(OCCOCCn2c[n+](C)c3ccccc32)c(CCCCC)c1	-84.1	4.11 µM [falling, partial curve]	3.66 µM [falling, partial curve]
C=CCSc1nc2c(c(=N)n1CC=C)C1CCCC1S2 (stereo not given)	-44.5	16.4 µM [falling, partial curve, poor fit]	9.2 µM [rising, partial curve, poor fit]
Cc1ccc(C(=O)NCCNC(=O)CN2CCOCC2)cc1	-6.54		
Cc1cc(/C=C2/SC(=O)NC2=O)c(C)n1-c1ccc(N2CCOCC2)cc1			6.51 µM [rising, single point]
O=C(CC(=O)c1cc(Cl)ccc1O)c1ccccc1	-154	20.6 µM [falling, single point]	20.6 µM [falling, single point]
Cn1ccc(NC(=O)c2ccc(Cl)cc2)n1	1.47		1.64 µM [falling, single point]
O=[N+]([O-])c1ccc(CSc2ccc(S(=O)(=O)N3CCOCC3)cn2)cc1	-33.7	20.6 µM [falling, partial curve, poor fit]	1.84 µM [falling, partial curve, poor fit]
Cc1cc(C)nc(NC(=O)C(C)C)n1	-18.1		29.1 µM [falling, single point]
NC(=O)c1nn(-c2ccccc2)nc1NC(=O)CSc1nnnn1-c1ccc(Cl)cc1	33.1	4.61 µM [rising, partial curve, poor fit]	3.26 µM [rising, partial curve]
CCCn1c(=O)[nH]c(=O)c2c1nc(-c1ccc(OC)c(Br)c1)n2CCOC	115	8.2 µM [rising, partial curve]	6.51 µM [rising, partial curve, poor fit]
